# Source: the supplement of paper PMC8728848
# Some of the results follow.
# What was measured:
# Assay in all cases: glycan array binding signal (z-score within array); higher = stronger binding
# Conditions in all cases: glycan notation: IUPAC condensed, linker removed
# [1] = system: Neu5Ac(a2-6)GlcNAc(b1-4)GlcNAc
# How it was run: (§1)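 From the Consortium for Functional Glycomics database, 3228 arrays were curated, keeping only those whose protein sequence was available. Binding is given as a within-array Z-score averaged across arrays sharing a protein sequence and across linkers. Negative Z-scores can be read as non-binding.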
# [2] = system: Neu5Ac(a2-8)Neu5Ac(a2-3)Gal(b1-3)GalNAc(b1-4)[Neu5Ac(a2-3)]Gal(b1-4)Glc
# How it was run: as §1
# [3] = system: Neu5Ac(a2-8)Neu5Ac(a2-3)Gal(b1-3)GalNAc(b1-4)[Neu5Ac(a2-8)Neu5Ac(a2-3)]Gal(b1-4)Glc
# How it was run: as §1
# [4] = system: Neu5Ac(a2-8)Neu5Ac(a2-3)Gal(b1-4)GlcNAc
# How it was run: as §1
# [5] = system: Neu5Ac(a2-8)Neu5Ac(a2-3)Gal(b1-4)Glc
# How it was run: as §1
# [6] = system: Neu5Ac(a2-8)Neu5Ac(a2-3)[Gal(b1-3)GalNAc(b1-4)]Gal(b1-4)Glc
# How it was run: as §1
# [7] = system: Neu5Ac(a2-8)Neu5Ac(a2-3)[GalNAc(b1-4)]Gal(b1-4)Glc
# How it was run: as §1
# [8] = system: Neu5Ac(a2-8)Neu5Ac(a2-8)Neu5Ac(a2-3)Gal(b1-4)Glc
# How it was run: as §1
# [9] = system: Neu5Ac(a2-8)Neu5Ac(a2-8)Neu5Ac(a2-3)[Gal(b1-3)GalNAc(b1-4)]Gal(b1-4)Glc
# How it was run: as §1
# [10] = system: Neu5Ac(a2-8)Neu5Ac(a2-8)Neu5Ac(a2-3)[GalNAc(b1-4)]Gal(b1-4)Glc
# How it was run: as §1
# [11] = system: Neu5Ac(a2-8)Neu5Ac(a2-8)Neu5Ac(a2-8)Neu5Ac(a2-3)[GalNAc(b1-4)]Gal(b1-4)Glc
# How it was run: as §1
# [12] = system: Neu5Ac(a2-8)Neu5Ac(a2-8)Neu5Ac
# How it was run: as §1
# Neu5Ac(a2-8)Neu5Ac = system: Neu5Ac(a2-8)Neu5Ac
# How it was run: as §1
# [13] = system: Neu5Ac(a2-8)Neu5Gc(a2-3)Gal(b1-4)GlcNAc
# How it was run: as §1
# [14] = system: Neu5Ac(b2-6)Gal(b1-4)GlcNAc
# How it was run: as §1
# Neu5Ac(b2-6)GalNAc = system: Neu5Ac(b2-6)GalNAc
# How it was run: as §1
# [15] = system: Neu5Ac9Ac(a2-3)Gal(b1-3)GlcNAc
# How it was run: as §1
# [16] = system: Neu5Ac9Ac(a2-3)Gal(b1-4)GlcNAc
# How it was run: as §1
# [17] = system: Neu5Ac9Ac(a2-6)Gal(b1-4)GlcNAc
# How it was run: as §1
# [18] = system: Neu5Gc(a2-3)Gal(b1-3)GlcNAc
# How it was run: as §1
# [19] = system: Neu5Gc(a2-3)Gal(b1-3)[Fuc(a1-4)]GlcNAc
# How it was run: as §1
# [20] = system: Neu5Gc(a2-3)Gal(b1-4)GlcNAc(b1-3)Gal(b1-4)GlcNAc(b1-2)Man(a1-3)[Neu5Gc(a2-3)Gal(b1-4)GlcNAc(b1-3)Gal(b1-4)GlcNAc(b1-2)Man(a1-6)]Man(b1-4)GlcNAc(b1-4)GlcNAc
# How it was run: as §1
# [21] = system: Neu5Gc(a2-3)Gal(b1-4)GlcNAc
# How it was run: as §1
# Neu5Gc(a2-3)Gal(b1-4)Glc = system: Neu5Gc(a2-3)Gal(b1-4)Glc
# How it was run: as §1
# [22] = system: Neu5Gc(a2-3)Gal(b1-4)[Fuc(a1-3)]GlcNAc
# How it was run: as §1
# [23] = system: Neu5Gc(a2-6)Gal(b1-4)GlcNAc
# How it was run: as §1
# Neu5Gc(a2-6)GalNAc = system: Neu5Gc(a2-6)GalNAc
# How it was run: as §1
# [24] = system: Neu5Gc(a2-8)Neu5Ac(a2-3)Gal(b1-4)GlcNAc
# How it was run: as §1
# [25] = system: Neu5Gc(a2-8)Neu5Gc(a2-3)Gal(b1-4)GlcNAc(b1-3)Gal(b1-4)GlcNAc
# How it was run: as §1
# [26] = system: Neu5Gc(a2-8)Neu5Gc(a2-3)Gal(b1-4)GlcNAc
# How it was run: as §1
# [27] = system: Neu5Gc(a2-8)Neu5Gc(a2-6)Gal(b1-4)GlcNAc
# How it was run: as §1
# [28] = system: Neu5Gc(b2-6)Gal(b1-4)GlcNAc
# How it was run: as §1
substance,measurement,setting,value
MpAFP RI GFP (Marinomonas primoryensis),glycan array binding signal (z-score),[1],-0.268
same,glycan array binding signal (z-score),[2],0.528
same,glycan array binding signal (z-score),[3],0.63
same,glycan array binding signal (z-score),[4],-0.781
same,glycan array binding signal (z-score),[5],-0.688
same,glycan array binding signal (z-score),[6],0.173
same,glycan array binding signal (z-score),[7],-0.546
same,glycan array binding signal (z-score),[8],0.005
same,glycan array binding signal (z-score),[9],0.526
same,glycan array binding signal (z-score),[10],-0.628
same,glycan array binding signal (z-score),[11],-0.475
same,glycan array binding signal (z-score),[12],-0.223
same,glycan array binding signal (z-score),Neu5Ac(a2-8)Neu5Ac,-0.217
same,glycan array binding signal (z-score),[13],-0.674
same,glycan array binding signal (z-score),[14],-0.925
same,glycan array binding signal (z-score),Neu5Ac(b2-6)GalNAc,-0.881
same,glycan array binding signal (z-score),[15],0.228
same,glycan array binding signal (z-score),[16],-0.74
same,glycan array binding signal (z-score),[17],-0.772
same,glycan array binding signal (z-score),[18],-0.553
same,glycan array binding signal (z-score),[19],-0.561
same,glycan array binding signal (z-score),[20],1.18
same,glycan array binding signal (z-score),[21],-0.683
same,glycan array binding signal (z-score),Neu5Gc(a2-3)Gal(b1-4)Glc,0.924
same,glycan array binding signal (z-score),[22],0.384
same,glycan array binding signal (z-score),[23],-0.117
same,glycan array binding signal (z-score),Neu5Gc(a2-6)GalNAc,1.39
same,glycan array binding signal (z-score),[24],-0.659
same,glycan array binding signal (z-score),[25],-0.671
same,glycan array binding signal (z-score),[26],-0.756
same,glycan array binding signal (z-score),[27],-0.701
same,glycan array binding signal (z-score),[28],-0.38

# Some of the entries above in a different format.
substance	measurement	setting	value
MpAFP RI GFP (Marinomonas primoryensis)	glycan array binding signal (z-score)	[18]	-0.553
same	glycan array binding signal (z-score)	[19]	-0.561
